# Some of the results follow.
# Molecular target: T1, OsSMF1 (Oryza sativa, UniProt Q6ZLB0 1-436)
# T1 sequence: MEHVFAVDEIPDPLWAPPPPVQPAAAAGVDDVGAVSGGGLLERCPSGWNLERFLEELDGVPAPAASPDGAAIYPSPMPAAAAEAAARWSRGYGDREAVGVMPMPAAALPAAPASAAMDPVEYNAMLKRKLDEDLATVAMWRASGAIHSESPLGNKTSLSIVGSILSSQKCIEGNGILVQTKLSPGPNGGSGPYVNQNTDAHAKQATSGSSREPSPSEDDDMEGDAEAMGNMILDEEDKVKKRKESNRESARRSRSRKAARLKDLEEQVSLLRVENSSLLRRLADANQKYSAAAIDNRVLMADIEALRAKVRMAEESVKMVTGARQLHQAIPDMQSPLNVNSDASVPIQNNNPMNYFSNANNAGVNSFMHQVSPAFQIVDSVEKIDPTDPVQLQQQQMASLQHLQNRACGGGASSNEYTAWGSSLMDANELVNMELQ
# Experiment: protein-binding microarray (RPBM); PBS, 2% BSA, 51.3 ng/ul salmon testes DNA, 50 uM zinc acetate, 200 nM TF, 25 C, 1 h; high values mean tight binding
# Conditions: protein: recombinant; tags: N-terminal polyhistidine and DsRed monomer fusion (pET32a); chain copies: 2; label: CyDye5-dUTP incorporated in the synthesized complementary strand; 3' TTTTT single-stranded linker to array surface; dsDNA, one strand shown
# Outline: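 Transcription factors were each fused at the N-terminus to a polyhistidine tag plus DsRed and expressed in E. coli BL21-CodonPlus before Ni–NTA purification. Binding to a double-stranded custom Agilent array was carried out with 200 nM protein at 25 °C for 1 h in PBS, 2% BSA, salmon testes DNA and 50 µM zinc acetate. The binding signal is per-feature fluorescence intensity, in arbitrary units, on an Axon 4000B scanner.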
row,Sequence,binding signal
1,AAACTAATTCGCGAGACGAATCTGTTGAGCCTAATTAATCCGGAGTCACCTAGTGCAG,3220 fluorescence intensity (a.u.)
2,CGGAAACAGATCATCAAACCCATACGTCAGTGATCCAAGTCGGAGTCACCTAGTGCAG,3410 fluorescence intensity (a.u.)
3,ATTCATATATATATATACACACACACTTACTTTGTATATGCGGAGTCACCTAGTGCAG,3190 fluorescence intensity (a.u.)
4,CTTATATTCCCATCATCCCATGATATGACATGGCATCGCCCGGAGTCACCTAGTGCAG,10500 fluorescence intensity (a.u.)
5,GGGGCAAACCCACGATCGAACACCTTGAGTGCAGCCGTCGCGGAGTCACCTAGTGCAG,8880 fluorescence intensity (a.u.)
6,CGCGCGGGCCTCCTCCGTTGTTGGCGTGGCTTCACACCTGCGGAGTCACCTAGTGCAG,3800 fluorescence intensity (a.u.)
7,CGCGCCACTGCGTCGTCACCGCCGTGAATCGCTCTTAGGCCGGAGTCACCTAGTGCAG,4360 fluorescence intensity (a.u.)
8,ACGTGTCGAGTCACACCTGTCTGTTAGGTCCGATCGTATGCGGAGTCACCTAGTGCAG,7880 fluorescence intensity (a.u.)
9,TTTATGTCTAAACCGCAGCTTACTCATTTTCCTTGTCTATCGGAGTCACCTAGTGCAG,3520 fluorescence intensity (a.u.)
10,GCGTGGTGCGTATCGTGCTCATCGCATCGGCCTCCGTATACGGAGTCACCTAGTGCAG,40000 fluorescence intensity (a.u.)
11,CTTCCATCAAAACTTTGATTCTACTGGTTTCTTCCTGAAACGGAGTCACCTAGTGCAG,29200 fluorescence intensity (a.u.)
12,AAACCATGACATGGCACCCGCAATGACGTGGTAGGCTACTCGGAGTCACCTAGTGCAG,18100 fluorescence intensity (a.u.)
13,GTCGCCATGGCAACGCCACGTGGGAATGTTCCTCGTCTCGCGGAGTCACCTAGTGCAG,17200 fluorescence intensity (a.u.)
14,TTGCGTTGTCGATCGGTTCGTCTAATGATGATTGTAAGCCCGGAGTCACCTAGTGCAG,5490 fluorescence intensity (a.u.)
15,ACGTCCTGTCTCACGCGCGGCCTGCATGACGCCCTCAATGCGGAGTCACCTAGTGCAG,3760 fluorescence intensity (a.u.)
16,TAGAATGTTGGTCATGGATTGTCAAAATCTCATCTGTTTTCGGAGTCACCTAGTGCAG,3830 fluorescence intensity (a.u.)
17,GCGCCCGCCGTGTTGGATGCGTCACCGCCCTCCGTTTCAGCGGAGTCACCTAGTGCAG,7400 fluorescence intensity (a.u.)
18,CGCCTATATGTATGTTTTGACTGGGTCATCGTCCCATGCGCGGAGTCACCTAGTGCAG,29600 fluorescence intensity (a.u.)
19,AACAGCGGCGAACGACACGAATCCTTCCACGTCATCGATCCGGAGTCACCTAGTGCAG,31000 fluorescence intensity (a.u.)
20,ATGAACATATTTCAATCGTTCAGTACCTTCAAGCCACAGGCGGAGTCACCTAGTGCAG,39800 fluorescence intensity (a.u.)
21,GTACTAGGGGAGTACACGTGGACAGAAGAAAGGAAAAGAGCGGAGTCACCTAGTGCAG,4140 fluorescence intensity (a.u.)
22,GAAATAATTATACTAAATCCAGATGTTGCATGCATGATACCGGAGTCACCTAGTGCAG,3420 fluorescence intensity (a.u.)
23,ACCAATTAAGGTGAAGATCTAGCAGATGAGCTGTAATAGCCGGAGTCACCTAGTGCAG,4430 fluorescence intensity (a.u.)
24,AAACATCATATCAAATCTTTGGACATAGGTATAGAATATTCGGAGTCACCTAGTGCAG,8890 fluorescence intensity (a.u.)
25,GGACTTTAAGATGTAACGTGTGTATGACAGGTGAGACCAGCGGAGTCACCTAGTGCAG,4860 fluorescence intensity (a.u.)
26,ATCCACCACGCAACCTTGCCGCCGCACTTGCACATGATGGCGGAGTCACCTAGTGCAG,3460 fluorescence intensity (a.u.)
27,AAGCCTCCTTGGCACTGTCACCACTTAGCCAGCCTTCACCCGGAGTCACCTAGTGCAG,4270 fluorescence intensity (a.u.)

# A few values from the list.
# CGCGCCACTGCGTCGTCACCGCCGTGAATCGCTCTTAGGCCGGAGTCACCTAGTGCAG | binding signal: 4360 fluorescence intensity (a.u.)
# TTTATGTCTAAACCGCAGCTTACTCATTTTCCTTGTCTATCGGAGTCACCTAGTGCAG | binding signal: 3520 fluorescence intensity (a.u.)

# Following part:

row,Sequence,binding signal
1,GTAGAAGCCTCTACTATCTACCCTATATATGCATCATTTGCGGAGTCACCTAGTGCAG,3240 fluorescence intensity (a.u.)
2,CACACCTCCACCAACTAGCTGCCACGCTCGCTTTCCCCTGCGGAGTCACCTAGTGCAG,3800 fluorescence intensity (a.u.)
3,GGGGCACATGTTGGTCTCACGCTGACTTAGCCGTCACGTCCGGAGTCACCTAGTGCAG,4670 fluorescence intensity (a.u.)
4,ATGAGGCCGACGTTGGCGGCCCCGTAGAAGGCCATGGGGCCGGAGTCACCTAGTGCAG,3820 fluorescence intensity (a.u.)
5,CTCTTCAGGGAACAGAATCAAATCAGCATTTTAACTAACTCGGAGTCACCTAGTGCAG,40100 fluorescence intensity (a.u.)
6,GACACACCACGCGTGGCAGAGCACACCACGCCCCAATTCGCGGAGTCACCTAGTGCAG,4120 fluorescence intensity (a.u.)
7,TTAGAACTTATAAACACTTCAATGAATGACTGTCACAGTTCGGAGTCACCTAGTGCAG,4150 fluorescence intensity (a.u.)
8,TTTCTAATTCGTCATTCACCTCTCTCCTCCATCTCTACCCCGGAGTCACCTAGTGCAG,3520 fluorescence intensity (a.u.)
9,CGGCCTATAAGTACTCCATCCCGCCGGCCGGCCGGTGACTCGGAGTCACCTAGTGCAG,3370 fluorescence intensity (a.u.)
10,GTGTGTACTGCCACTGTGTGTGTGTGTGTGTGTGTGTGTGCGGAGTCACCTAGTGCAG,4570 fluorescence intensity (a.u.)
11,GAGCTTCGTGTCTGATGACGTATACAAGATTTTGGGGTGACGGAGTCACCTAGTGCAG,13700 fluorescence intensity (a.u.)
12,GATTGATCGATTAATCTGGGTGTACGTGGAGCACACACCTCGGAGTCACCTAGTGCAG,3840 fluorescence intensity (a.u.)
13,GAAAGTAGCATGATGTGGCGCTTACGTGGCAGTGATAGACCGGAGTCACCTAGTGCAG,35000 fluorescence intensity (a.u.)
14,CGGCCGTCGCCCGAGAGCGAACGGCCGTCTGCCACGTCATCGGAGTCACCTAGTGCAG,35700 fluorescence intensity (a.u.)
15,GCCGGATCGAGCCCAACGCCACAGTTTCTTCTCGTCACAACGGAGTCACCTAGTGCAG,3210 fluorescence intensity (a.u.)
16,AAATTAACGATGAGATTAGATAGTGCATGTGGTGACTTAGCGGAGTCACCTAGTGCAG,29700 fluorescence intensity (a.u.)
17,TGGTCTGGTCTGCTGACTCGCTGATCGAATACTCTAGCATCGGAGTCACCTAGTGCAG,5260 fluorescence intensity (a.u.)
18,GTGCCACTGCCGCCGCCGTCCTCCTTCCCCACATCAGCGCCGGAGTCACCTAGTGCAG,4320 fluorescence intensity (a.u.)
19,GTTGTCCTTTTGTCTTGTGGATGTGGAGAATGCGATGCCACGGAGTCACCTAGTGCAG,3320 fluorescence intensity (a.u.)
20,TCGGCAGGTTAGATTAGGTCAACAAACCACGTTAGCGAGACGGAGTCACCTAGTGCAG,3870 fluorescence intensity (a.u.)
21,GTTGTTCGCGCGCGATCTGTGCACGCGTCACGTACGCGCCCGGAGTCACCTAGTGCAG,3550 fluorescence intensity (a.u.)
22,CCTGTATCGGGCATGTTCGTGGAGGTTGATGTCATGGCCGCGGAGTCACCTAGTGCAG,3750 fluorescence intensity (a.u.)
23,CGAATCCAAGCCTGTGTCGTGGCTCCGTTTCGGTTGGGTTCGGAGTCACCTAGTGCAG,3290 fluorescence intensity (a.u.)
24,CTGATTGCGATTACGACGTAAACATCAGGACCGTAGGGACCGGAGTCACCTAGTGCAG,31200 fluorescence intensity (a.u.)
25,GAAGATGATATTATTATCAGCGTCACCTTTGGTTACCGAACGGAGTCACCTAGTGCAG,8810 fluorescence intensity (a.u.)
26,TGTAACGAAGAGTTTGATCACGCGTCTCTCGTCATGTTGTCGGAGTCACCTAGTGCAG,3170 fluorescence intensity (a.u.)
27,ATCCAGTCTCTCTATTAGCTTGTATCCCTATTCTTATTCTCGGAGTCACCTAGTGCAG,26000 fluorescence intensity (a.u.)
